Results are given in words; binding and its absence hold for the method and conditions named. Some binding calls cover weakened binding; strength is not graded here.
Experiments:
Experiment in all cases: two-hybrid
[1] = molecular target: T1, 178-aa N-terminal region of MSL1 (Drosophila) (UniProt P50535)
T1 sequence: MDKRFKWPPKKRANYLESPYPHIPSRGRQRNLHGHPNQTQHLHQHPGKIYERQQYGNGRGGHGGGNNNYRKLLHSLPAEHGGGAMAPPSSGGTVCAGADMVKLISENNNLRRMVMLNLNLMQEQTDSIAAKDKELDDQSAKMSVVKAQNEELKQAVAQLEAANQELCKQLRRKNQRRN

By UniProt entry, the sequences of proteins in these tests, tags left out.
UniProt P19538, whole entry: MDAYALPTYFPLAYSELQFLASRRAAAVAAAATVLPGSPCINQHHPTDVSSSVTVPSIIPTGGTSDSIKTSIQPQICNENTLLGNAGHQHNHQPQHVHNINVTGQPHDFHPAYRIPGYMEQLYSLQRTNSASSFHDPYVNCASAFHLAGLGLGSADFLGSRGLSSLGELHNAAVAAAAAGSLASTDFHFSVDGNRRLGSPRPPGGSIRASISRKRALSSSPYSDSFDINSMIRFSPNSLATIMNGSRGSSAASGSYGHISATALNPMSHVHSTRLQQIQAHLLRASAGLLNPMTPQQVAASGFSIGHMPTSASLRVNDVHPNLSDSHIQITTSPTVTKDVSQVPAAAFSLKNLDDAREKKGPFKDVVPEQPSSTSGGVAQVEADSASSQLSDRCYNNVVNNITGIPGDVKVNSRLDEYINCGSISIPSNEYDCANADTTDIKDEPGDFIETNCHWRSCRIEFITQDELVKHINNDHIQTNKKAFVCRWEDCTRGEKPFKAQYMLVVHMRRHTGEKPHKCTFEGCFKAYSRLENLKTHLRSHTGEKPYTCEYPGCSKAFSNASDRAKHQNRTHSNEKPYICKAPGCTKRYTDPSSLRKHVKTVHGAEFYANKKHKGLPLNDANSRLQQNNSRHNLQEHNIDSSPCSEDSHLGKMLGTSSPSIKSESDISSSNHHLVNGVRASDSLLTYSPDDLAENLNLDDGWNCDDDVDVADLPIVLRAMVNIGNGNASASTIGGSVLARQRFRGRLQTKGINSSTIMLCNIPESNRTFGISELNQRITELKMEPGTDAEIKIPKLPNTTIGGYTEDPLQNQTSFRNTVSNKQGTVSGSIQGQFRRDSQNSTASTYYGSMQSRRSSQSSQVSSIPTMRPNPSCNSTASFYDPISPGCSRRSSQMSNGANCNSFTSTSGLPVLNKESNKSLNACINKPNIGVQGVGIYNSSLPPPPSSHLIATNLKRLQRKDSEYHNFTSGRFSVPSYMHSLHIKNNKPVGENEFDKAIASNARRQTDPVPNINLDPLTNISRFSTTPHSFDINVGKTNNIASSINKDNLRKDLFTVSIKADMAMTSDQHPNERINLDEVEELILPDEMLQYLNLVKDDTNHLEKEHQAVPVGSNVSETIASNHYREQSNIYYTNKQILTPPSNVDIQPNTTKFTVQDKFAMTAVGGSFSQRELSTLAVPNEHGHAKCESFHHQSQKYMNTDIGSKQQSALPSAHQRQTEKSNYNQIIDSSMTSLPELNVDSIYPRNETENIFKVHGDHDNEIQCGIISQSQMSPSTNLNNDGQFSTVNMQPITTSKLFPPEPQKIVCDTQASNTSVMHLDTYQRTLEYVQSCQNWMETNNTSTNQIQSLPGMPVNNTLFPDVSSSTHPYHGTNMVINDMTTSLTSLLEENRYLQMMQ
UniProt P07247, whole entry: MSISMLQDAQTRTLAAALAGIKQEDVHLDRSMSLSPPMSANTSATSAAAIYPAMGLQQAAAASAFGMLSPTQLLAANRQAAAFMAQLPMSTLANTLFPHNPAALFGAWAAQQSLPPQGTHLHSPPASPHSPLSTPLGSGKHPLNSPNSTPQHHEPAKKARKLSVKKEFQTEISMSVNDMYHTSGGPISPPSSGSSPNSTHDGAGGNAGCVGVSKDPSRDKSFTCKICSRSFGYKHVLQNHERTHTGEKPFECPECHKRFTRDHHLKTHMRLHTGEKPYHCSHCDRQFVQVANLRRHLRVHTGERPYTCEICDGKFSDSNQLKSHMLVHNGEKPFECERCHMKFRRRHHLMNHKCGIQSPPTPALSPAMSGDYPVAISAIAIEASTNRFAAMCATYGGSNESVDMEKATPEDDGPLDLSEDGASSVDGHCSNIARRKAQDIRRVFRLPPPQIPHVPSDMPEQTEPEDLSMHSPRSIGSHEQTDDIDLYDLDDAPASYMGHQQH
UniProt P23803, whole entry: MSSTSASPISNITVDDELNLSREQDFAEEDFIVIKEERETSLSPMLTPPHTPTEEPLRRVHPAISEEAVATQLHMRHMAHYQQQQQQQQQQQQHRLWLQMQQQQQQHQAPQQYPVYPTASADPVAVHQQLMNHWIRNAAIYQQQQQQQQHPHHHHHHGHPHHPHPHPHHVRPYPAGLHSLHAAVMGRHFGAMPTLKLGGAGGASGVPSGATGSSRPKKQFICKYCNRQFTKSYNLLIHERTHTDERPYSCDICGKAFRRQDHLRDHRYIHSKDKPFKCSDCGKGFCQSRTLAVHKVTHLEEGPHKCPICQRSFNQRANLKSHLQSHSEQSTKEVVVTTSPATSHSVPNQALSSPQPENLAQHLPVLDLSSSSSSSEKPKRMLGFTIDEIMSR

[2] = molecular target: T2, male-specific lethal (MSL)1 (Drosophila) (UniProt P50535)
T2 sequence: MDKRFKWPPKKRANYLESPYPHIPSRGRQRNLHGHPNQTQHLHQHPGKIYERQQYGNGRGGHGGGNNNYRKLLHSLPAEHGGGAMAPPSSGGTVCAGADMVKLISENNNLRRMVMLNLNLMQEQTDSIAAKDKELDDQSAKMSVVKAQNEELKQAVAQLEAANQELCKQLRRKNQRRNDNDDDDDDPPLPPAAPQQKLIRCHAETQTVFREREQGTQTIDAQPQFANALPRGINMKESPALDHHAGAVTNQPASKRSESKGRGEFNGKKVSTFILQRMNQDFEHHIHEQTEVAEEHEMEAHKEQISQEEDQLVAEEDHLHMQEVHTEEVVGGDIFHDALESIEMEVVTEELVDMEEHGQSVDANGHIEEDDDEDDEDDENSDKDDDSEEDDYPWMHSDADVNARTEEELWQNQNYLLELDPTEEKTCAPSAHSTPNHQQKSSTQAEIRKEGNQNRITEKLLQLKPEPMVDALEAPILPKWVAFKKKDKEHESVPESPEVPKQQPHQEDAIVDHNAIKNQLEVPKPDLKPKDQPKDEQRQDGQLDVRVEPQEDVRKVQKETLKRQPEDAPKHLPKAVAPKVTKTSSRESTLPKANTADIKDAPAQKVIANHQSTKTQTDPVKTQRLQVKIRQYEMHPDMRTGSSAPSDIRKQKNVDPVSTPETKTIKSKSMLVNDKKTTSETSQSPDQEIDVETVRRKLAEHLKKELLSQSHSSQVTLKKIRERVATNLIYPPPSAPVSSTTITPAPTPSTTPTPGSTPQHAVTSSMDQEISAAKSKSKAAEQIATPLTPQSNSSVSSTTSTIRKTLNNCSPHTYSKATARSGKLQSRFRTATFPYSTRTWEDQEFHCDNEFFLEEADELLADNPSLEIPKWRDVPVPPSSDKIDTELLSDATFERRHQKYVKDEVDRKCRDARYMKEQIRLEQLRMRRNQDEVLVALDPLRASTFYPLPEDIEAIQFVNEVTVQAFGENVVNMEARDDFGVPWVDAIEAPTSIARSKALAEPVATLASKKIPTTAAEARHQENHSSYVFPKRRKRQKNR

[3] = molecular target: T3, male-specific lethal (MSL)2 (Drosophila) (UniProt P50534)
T3 sequence: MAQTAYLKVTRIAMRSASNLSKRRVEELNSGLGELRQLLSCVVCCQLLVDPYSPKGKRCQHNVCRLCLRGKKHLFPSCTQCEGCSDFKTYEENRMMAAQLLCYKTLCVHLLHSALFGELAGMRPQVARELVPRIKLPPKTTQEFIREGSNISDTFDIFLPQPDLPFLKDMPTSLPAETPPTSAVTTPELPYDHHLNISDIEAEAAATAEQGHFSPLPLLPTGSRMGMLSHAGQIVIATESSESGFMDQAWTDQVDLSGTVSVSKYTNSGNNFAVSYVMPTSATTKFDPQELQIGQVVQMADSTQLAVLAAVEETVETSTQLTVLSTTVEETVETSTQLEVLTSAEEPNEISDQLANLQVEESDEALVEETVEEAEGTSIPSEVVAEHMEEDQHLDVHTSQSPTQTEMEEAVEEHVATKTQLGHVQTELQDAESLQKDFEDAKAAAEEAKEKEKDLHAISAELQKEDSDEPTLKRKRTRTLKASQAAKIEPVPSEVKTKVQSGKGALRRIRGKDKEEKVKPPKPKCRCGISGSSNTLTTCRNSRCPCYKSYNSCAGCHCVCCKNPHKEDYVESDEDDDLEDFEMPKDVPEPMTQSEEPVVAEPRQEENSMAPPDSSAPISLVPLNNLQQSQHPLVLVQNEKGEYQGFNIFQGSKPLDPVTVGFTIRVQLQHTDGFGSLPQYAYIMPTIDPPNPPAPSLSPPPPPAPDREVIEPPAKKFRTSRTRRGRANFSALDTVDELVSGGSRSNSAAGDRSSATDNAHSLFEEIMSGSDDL

Ci (from UniProt P19538 1-1397) was tested, and the binding [1] was “binds” and the binding [2] was “binds”.

In the case of Kruppel (from UniProt P07247 1-502), the binding [1] is reported as “binds” and the binding [2] is reported as “binds”.

For Odd (from UniProt P23803 1-392), the binding [1] was “binds” and the binding [2] was “binds”.

B1: Snail (protein, UniProt P08044 1-390)
chain: MAANYKSCPLKKRPIVFVEERLPQTEALALTKDSQFAQDQPQDLSLKRGRDEETQDYQQPEPKRDYVLNLSKTPERNSSSSSNSCLLSPPVEAQDYLPTEIHMRGLTAGTTGYTTATPTTINPFQSAFVMAAGCNPISALWSSYQPHLAAFPSPASSMASPQSVYSYQQMTPPSSPGSDLETGSEPEDLSVRNDIPLPALFHLFDEAKSSSSGASVSSSSGYSYTPAMSASSASVAANHAKNYRFKCDECQKMYSTSMGLSKHRQFHCPAAECNQEKKTHSCEECGKLYTTIGALKMHIRTHTLPCKCPICGKAFSRPWLLQGHIRTHTGEKPFQCPDCPRSFADRSNLRAHQQTHVDVKKYACQVCHKSFSRMSLLNKHSSSNCTITIA
For B1, the binding [2] was “binds”.

B2: chromatin-linked adaptor for MSL proteins (protein, UniProt Q9V9N4 1-561)
chain: MEDLTKNIIFTNAINGQPATIQYQTADGTILKQPKIEGQKTEQQPTFYYTTNGNGGTVNLAQLATTDDNKTCYIAQPVGGYNYALVNGMPLNQGAALGIATVDAQGRIQIVNQNKPIAANTISNISFKCDVCSDMFPHLALLNAHKRMHTDGEQQQQQQHNAQAGGDSIAVVSAQGLVQAQNIIGNGQMGQIQIVSSDTLEPVQQSVMQQQQHESKASKCINCGSSMLQQSKRKGPKQVRCESCMQAEQTAQQQQQLFVAQDGQMAHPVQIISTTPQAQAQLQQIVAAQTGGTTPKREASSGSGHHPVKKRNSQQMTKCQKCNGSGVVLVGQHSHASHSGVGGSVKQSVTVKTENPSKPFSCNICGGLFSRYSSLWSHKKLHSGEKNYKCSICGLAFAKAVYLKNHARIHTGEKPYKCQTCGMQFSQSPHLKNHERTHSGERPYVCGVCDKGFARHATLWNHRRIHTGEKPYKCEICGSAFSQAAHLKNHAKVHSGEKPYKCEICSAAFADRFALKRHRGIHQKYGQTAPRQTSSDGMIVHKQEIPDMEDEAQQEVIIGGL
B2 was tested, and the binding [3] was “binds”.

From article doi:10.1101/2020.11.11.378323
